According to paper PMC10697958:
No constants are given. Whether binding was seen depends on the method and setting. In cells and extracts the contact can be indirect. Some results given as binding are weak or reduced against the parent protein; the word gives no strength.

By UniProt entry, the sequences of proteins in these tests, tags left out. Residues count along the entry.
UniProt O00206, residues 24-839: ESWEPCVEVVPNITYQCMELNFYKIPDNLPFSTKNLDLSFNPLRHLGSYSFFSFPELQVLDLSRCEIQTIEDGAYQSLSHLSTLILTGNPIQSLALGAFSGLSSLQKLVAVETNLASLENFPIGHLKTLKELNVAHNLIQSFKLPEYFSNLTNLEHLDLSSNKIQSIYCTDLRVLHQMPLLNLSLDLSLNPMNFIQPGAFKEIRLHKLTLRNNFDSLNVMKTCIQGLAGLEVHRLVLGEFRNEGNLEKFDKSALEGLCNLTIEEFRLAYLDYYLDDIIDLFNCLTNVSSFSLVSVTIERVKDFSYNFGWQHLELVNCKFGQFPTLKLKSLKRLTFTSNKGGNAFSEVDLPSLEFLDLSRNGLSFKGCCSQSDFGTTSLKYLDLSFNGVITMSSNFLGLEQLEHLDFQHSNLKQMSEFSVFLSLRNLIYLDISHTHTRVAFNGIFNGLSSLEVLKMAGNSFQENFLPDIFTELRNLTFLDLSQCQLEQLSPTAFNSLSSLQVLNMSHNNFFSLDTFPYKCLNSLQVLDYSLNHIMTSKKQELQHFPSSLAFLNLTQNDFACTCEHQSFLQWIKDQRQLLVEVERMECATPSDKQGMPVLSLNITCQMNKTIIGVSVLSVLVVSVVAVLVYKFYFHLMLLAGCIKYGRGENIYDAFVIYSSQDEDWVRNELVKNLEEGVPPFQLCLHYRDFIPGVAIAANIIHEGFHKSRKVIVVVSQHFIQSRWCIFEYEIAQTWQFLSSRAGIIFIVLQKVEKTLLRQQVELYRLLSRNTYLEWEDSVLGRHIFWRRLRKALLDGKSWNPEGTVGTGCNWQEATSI
UniProt P05387: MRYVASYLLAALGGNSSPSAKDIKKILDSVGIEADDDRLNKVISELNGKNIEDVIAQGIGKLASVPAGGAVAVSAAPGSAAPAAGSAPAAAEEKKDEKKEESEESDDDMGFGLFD

Target: TLR4 (human (endogenous in Hep3B)) (UniProt O00206)
Test: co-IP; endogenous proteins; Hep3B lysate in NP-40 lysis buffer with protease inhibitors incubated overnight at 4 °C with anti-TLR4 antibody (4 μg/ml) or control IgG, protein G/A beads 3 h at 4 °C, washed with precooled PBS; immunoblot for TLR4 and RPLP2

- binding: binds
Substance: Acidic ribosome protein P2 (RPLP2) (from UniProt P05387 1-115)
